{"source": "ChEMBL document CHEMBL1156116", "about": "“Histone deacetylase and microtubules as targets for the synthesis of releasable conjugate compounds” (Bioorg Med Chem Lett, 2009)", "system": "IGROV-1", "test": "Antiproliferative activity against human IGROV1 cells assessed as growth inhibition after 72 hrs by Coulter counting analysis", "type": "functional, cell-based", "details": "IGROV-1, 72 h"}
{"molecule": "COc1cc2c(c(OC)c1OC)-c1ccc(SC)c(=O)cc1[C@@H](N)CC2", "values": [{"measurement": "IC50", "value": 23, "unit": "nM"}]}
